Results published in PubChem BioAssay AID662 (National Center for Advancing Translational Sciences (NCATS), 2007).
This is one part of the list. These are further read-outs of the screen, such as a control signal, another cell line or another target. No call is given for them. The list favours compounds with an active or inconclusive main result. Words in brackets tell the shape of the fitted curve; partial curves, single points and poor fits give uncertain potencies.

Test: Cell signaling CRE-BLA (Fsk stim)
Details: CHO CRE-bla reporter (cAMP response element driving beta-lactamase), forskolin EC10, beta-lactamase ratio; measured here: 460 nm blue channel
In short: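 Modulation of forskolin-driven signalling is measured in CHO cells carrying a CRE-controlled beta-lactamase reporter. Cells are stimulated with EC10 NKH 477 in the presence of titrated compound for 3 h at 37 °C, then loaded with CCF4 for 2 h at room temperature.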
In the case of CCOc1cc2c(cc1OCC)C(C(=O)O)C(c1cc(OC)c(OC)c(OC)c1)N(C)C2=O (centres undefined), the AC50 is reported as 0.0631 µM [falling, full curve, poor fit]. In the case of COc1ncc2nc(C)c(=O)n(C3CC3)c2n1, the AC50 is reported as 15.8 µM [rising, partial curve]. For Cc1ccsc1C(=O)OCc1csc(-c2ccccc2)n1, the AC50 was 1.58 µM [falling, partial curve]. With Cc1ccc(C)c(NC(=O)CSc2nnc(-c3ccncc3)n2N)c1 the AC50 was 2 µM [falling, full curve, poor fit]. With CCOC(=O)COc1ccc2nsnc2c1 the AC50 was 0.794 µM [falling, full curve, poor fit]. With CN(C(=O)c1ccco1)c1nnc(C23CC4CC(CC(C4)C2)C3)s1 the AC50 was 10 µM [rising, partial curve]. For COc1ccccc1-c1cc(C2CC2)nc(N)c1C#N, the AC50 was 10 µM [rising, partial curve]. With Cc1ccc(N(CC(=O)N2CCc3ccccc32)C2=NC(=O)CS2)cc1 the AC50 was 0.126 µM [falling, full curve, poor fit]. For Cc1cnc(NC(=O)CN(C)S(=O)(=O)c2ccc(Cl)cc2)s1, the AC50 was 5.01 µM [falling, single point]. In the case of CCCCCn1c(N(C)Cc2ccccc2)nc2c1c(=O)[nH]c(=O)n2C, the AC50 is reported as 6.31 µM [rising, partial curve]. With CNC(=O)c1cc2c(cn1)[nH]c1ccccc12 the AC50 was 0.0398 µM [rising, full curve, poor fit]. With NC(N)=NNC(=O)C(=O)O the AC50 was 5.01 µM [rising, single point]. With CCc1nc(NCCN2CCOCC2)c2oc3ccccc3c2n1 the AC50 was 12.6 µM [rising, single point]. With C[C@@H](/C=C\c1cccc(Oc2ccc(F)cc2)c1)N(O)C(N)=O the AC50 was 0.0794 µM [rising, full curve, poor fit]. For C=CCn1c(SCn2nnc3ccccc3c2=O)nc2scc(-c3cccs3)c2c1=O, the AC50 was 1.58 µM [rising, full curve]. In the case of O=C(CSc1nc2ccccc2o1)NC(=O)NCc1ccco1, the AC50 is reported as 0.126 µM [falling, full curve, poor fit]. In the case of COc1ccc(CCn2c(SCC(=O)Nc3cc(C)on3)nc3ccsc3c2=O)cc1OC, the AC50 is reported as 6.31 µM [rising, partial curve]. With CCn1nc(NC(=O)c2ccncc2)c2cc3cc(C)ccc3nc21 the AC50 was 3.98 µM [rising, partial curve]. For CCOc1ccccc1N1CCN(C(=O)c2cc[n+]([O-])cc2)CC1, the AC50 was 5.01 µM [falling, partial curve]. For Brc1cnc(N2CCOCC2)nc1N1CCCCC1, the AC50 was 20 µM [rising, partial curve, poor fit]. With Cc1ccc(CNc2oc(-c3cccs3)nc2C#N)cc1 the AC50 was 5.01 µM [rising, partial curve]. With COc1ccccc1-c1ccc2ncnc(Nc3ccccc3)c2c1 the AC50 was 10 µM [falling, single point]. In the case of Nc1ccc(-n2c(N)c(C(=O)NCc3ccc4c(c3)OCO4)c3nc4ccccc4nc32)cc1, the AC50 is reported as 10 µM [rising, partial curve]. In the case of COCCn1c(SC(C)C(=O)Nc2ccc3c(c2)OCCO3)nc2ccccc2c1=O (centres undefined), the AC50 is reported as 10 µM [rising, partial curve]. For CC(C)OC(=O)c1nnn(-c2nonc2N)c1CN1CCCCCC1, the AC50 was 5.01 µM [falling, single point]. In the case of Cn1cc(-c2nc3cncnc3n(-c3ccccc3)c2=O)c2ccccc21, the AC50 is reported as 10 µM [rising, partial curve]. In the case of COc1ccc(CCNC2CC(=O)N(CCc3ccc(OC)c(OC)c3)C2=O)cc1OC (centres undefined), the AC50 is reported as 15.8 µM [rising, single point]. In the case of COc1ccc(CN(CCN(C)C)c2ccccn2)cc1, the AC50 is reported as 31.6 µM [falling, single point]. For COc1ccc(N(CC(=O)Nc2ccc(C)cn2)S(=O)(=O)c2c(C)noc2C)cc1, the AC50 was 5.01 µM [falling, partial curve]. With Cc1[nH]c2ccccc2c1C(=O)CN1CCCCC1C (centres undefined) the AC50 was 2.51 µM [falling, full curve]. For COCCCn1c(=N)c(C(=O)NCC2CCCO2)cc2c(=O)n3cccc(C)c3nc21 (centres undefined), the AC50 was 10 µM [rising, partial curve]. In the case of CCOC(=O)CSc1nc2c(c(=O)[nH]c(=O)n2C)n1C/C=C(/C)Cl, the AC50 is reported as 12.6 µM [rising, partial curve]. In the case of C/C(CC(O)c1ccc2ccccc2n1)=N/O (centres undefined), the AC50 is reported as 0.00631 µM [falling, full curve]. For Cc1ccc(-n2c(=O)[nH]cc(C(=O)Nc3ccc4c(c3)OCO4)c2=O)cc1C, the AC50 was 10 µM [rising, single point]. For CC(=O)N1CCc2cc(S(=O)(=O)CCC(=O)N3CCN(c4ccccn4)CC3)ccc21, the AC50 was 25.1 µM [rising, single point]. With O=c1c2ccccc2c(C=NC2CCS(=O)(=O)C2)c(O)n1-c1ccccc1 (centres undefined) the AC50 was 25.1 µM [rising, single point]. With CC1CCCN(c2nc3c(c(=O)[nH]c(=O)n3C)n2CCCc2ccccc2)C1 (centres undefined) the AC50 was 15.8 µM [falling, partial curve]. With OC1CCCN(Cc2cccc3ccccc23)C1 (centres undefined) the AC50 was 0.2 µM [rising, full curve, poor fit]. In the case of CC(=O)Oc1ccc2oc(=O)c3c(c2c1)CCCN3C(=O)CN1CCN(c2ncccn2)CC1, the AC50 is reported as 10 µM [rising, partial curve]. For O=C(Nc1cccc(S(=O)(=O)C(F)F)c1)c1ccc(Cl)c(S(=O)(=O)N2CCOCC2)c1, the AC50 was 25.1 µM [falling, single point]. In the case of Cc1ccc(-c2cnc(-c3ccncc3)o2)cc1, the AC50 is reported as 1 µM [falling, single point]. For COCCn1c(=O)c(-c2cccs2)nc2cnc(OC)nc21, the AC50 was 2.51 µM [rising, full curve]. For COc1ccc(C2C(C#N)=C(C)NC3=C2C(=O)CC(C)(C)C3)c(OC)c1 (centres undefined), the AC50 was 10 µM [rising, single point]. For O=C1NCCCC1C(=O)N1CCN(C(=O)c2ccco2)CC1 (centres undefined), the AC50 was 0.501 µM [rising, partial curve]. For CN(Cc1ccco1)c1ncnc2ccc(-c3cccc(C#N)c3)cc12, the AC50 was 10 µM [rising, partial curve]. In the case of COc1ccc(Br)cc1C(=O)O, the AC50 is reported as 25.1 µM [falling, single point]. With COc1ccc(CCNC(=O)c2cnc3scc(C)n3c2=O)cc1OC the AC50 was 7.94 µM [rising, partial curve]. For CCSC(=N)N, the AC50 was 15.8 µM [falling, partial curve, poor fit]. For Cc1cc2n(n1)C(c1ccco1)Nc1ccccc1-2 (centres undefined), the AC50 was 3.16 µM [rising, full curve]. With Cc1cc(C)n(-c2nnc(C)c(=O)[nH]2)n1 the AC50 was 1 µM [rising, single point]. For COC(=O)c1ccc(C(NC(=O)OCc2ccccc2)/C(I)=C/[C@@H](C)C(=O)NCc2ccc(C)o2)cc1 (some centres undefined), the AC50 was 10 µM [falling, partial curve]. For CCSc1nnc2c(n1)[nH]c1c(C)cccc12, the AC50 was 12.6 µM [rising, partial curve]. For O=C(N[C@@H](Cc1ccccc1)C(=O)CCl)OCc1ccccc1, the AC50 was 10 µM [falling, full curve]. With COC(=O)C1=CN(CC2CCCO2)C=C(C(=O)OC)C1c1cc(OC)c(OC)c(OC)c1 (centres undefined) the AC50 was 10 µM [rising, partial curve]. With Cc1noc(C)c1C(=O)OCC(=O)Nc1ccccc1C(=O)NC(C)c1ccccc1 (centres undefined) the AC50 was 12.6 µM [rising, single point]. With CCNc1ncc2nc(-c3ccccc3)c(=O)n(CCOC)c2n1 the AC50 was 12.6 µM [rising, partial curve]. With Cc1ccc(S(=O)(=O)NC(=O)NC(C)(C)C)cc1 the AC50 was 0.00398 µM [falling, full curve]. In the case of COc1cccc(-c2cn3nc4c(nc3n2)CCCC4)c1, the AC50 is reported as 12.6 µM [rising, partial curve]. With COc1ccc(-c2noc(CCC(=O)N3CCN(c4cc(C)ccc4C)CC3)n2)cc1 the AC50 was 0.1 µM [falling, full curve, poor fit]. With CCOc1ccccc1-n1c(SCC(=O)NC2CCCC2)nnc1-c1ccoc1C the AC50 was 0.1 µM [falling, single point]. For C=CCn1c(SCC(=O)NCC2CCCO2)nc2scc(-c3ccco3)c2c1=O (centres undefined), the AC50 was 7.94 µM [rising, partial curve]. In the case of CC(C)(C)OC(=O)N1CCC(c2c(C(=O)O)cnn2-c2ccccc2Cl)CC1, the AC50 is reported as 0.00398 µM [rising, full curve, poor fit]. With COc1ncc2nc(C)c(=O)n(CCC#N)c2n1 the AC50 was 25.1 µM [rising, single point]. In the case of CSc1nnc2c3c4c(sc3c(=O)n(-c3ccccc3)n12)CC(C)(C)OC4, the AC50 is reported as 15.8 µM [rising, partial curve]. In the case of COc1ccc(OC)c(C2C=C(c3ccc(C)c(C)c3)Nc3nnnn32)c1 (centres undefined), the AC50 is reported as 12.6 µM [rising, partial curve]. In the case of COc1ccc(-c2nc(C)c(C(C)=O)n2O)cc1OC, the AC50 is reported as 0.00398 µM [falling, full curve, poor fit]. For COc1cccc2c(=O)c3c(cnn3C)n(C)c12, the AC50 was 10 µM [rising, partial curve]. In the case of CCOC(=O)c1cnc(SCC(=O)Nc2nc(C)c(C)s2)nc1N, the AC50 is reported as 12.6 µM [rising, partial curve]. In the case of CC(=O)c1c(N)[nH]c(-c2ccccc2)nc1=S, the AC50 is reported as 12.6 µM [rising, single point].
